Drug screen on melanoma cell lines: apoptosis marker

Data from the primary screen of doi:10.1371/journal.pone.0140310, rounded.

First drug in all entries: vincristine, 0.0005 µM, CC[C@]1(O)C[C@H]2CN(CCc3c([nH]c4ccccc34)[C@@](C(=O)OC)(c3cc4c(cc3OC)N(C=O)[C@H]3[C@@](O)(C(=O)OC)[C@H](OC(C)=O)[C@]5(CC)C=CCN6CC[C@]43[C@@H]65)C2)C1

Drugs:
GSK0660, 5 µM: COC(=O)c1sccc1S(=O)(=O)Nc1ccc(Nc2ccccc2)cc1OC
NVP-BEZ235, 0.02 µM: Cn1c(=O)n(-c2ccc(C(C)(C)C#N)cc2)c2c3cc(-c4cnc5ccccc5c4)ccc3ncc21
cediranib, 2 µM: COc1cc2c(Oc3ccc4[nH]c(C)cc4c3F)ncnc2cc1OCCCN1CCCC1
GW0742, 10 µM: Cc1cc(SCc2sc(-c3ccc(C(F)(F)F)c(F)c3)nc2C)ccc1OCC(=O)O
KU-0063794, 0.1 µM: COc1ccc(-c2ccc3c(N4CCOCC4)nc(N4C[C@@H](C)O[C@@H](C)C4)nc3n2)cc1CO
BMS-536924, 1 µM: Cc1cc(N2CCOCC2)cc2[nH]c(-c3c(NC[C@@H](O)c4cccc(Cl)c4)cc[nH]c3=O)nc12
GW9662, 10 µM: O=C(Nc1ccccc1)c1cc([N+](=O)[O-])ccc1Cl
AZD7762, 0.1 µM: NC(=O)Nc1cc(-c2cccc(F)c2)sc1C(=O)N[C@H]1CCCNC1
GW441756, 2 µM: Cn1cc(/C=C2\C(=O)Nc3cccnc32)c2ccccc21
JZL184, 5 µM: O=C(Oc1ccc([N+](=O)[O-])cc1)N1CCC(C(O)(c2ccc3c(c2)OCO3)c2ccc3c(c2)OCO3)CC1
SNS-032, 0.05 µM: CC(C)(C)c1cnc(CSc2cnc(NC(=O)C3CCNCC3)s2)o1
MK-1775, 0.1 µM: C=CCn1c(=O)c2cnc(Nc3ccc(N4CCN(C)CC4)cc3)nc2n1-c1cccc(C(C)(C)O)n1
indole-3-carbinol, 4 µM: OCc1c[nH]c2ccccc12
PLX4720, 0.4 µM: CCCS(=O)(=O)Nc1ccc(F)c(C(=O)c2c[nH]c3ncc(Cl)cc23)c1F
fingolimod, 10 µM: CCCCCCCCc1ccc(CCC(N)(CO)CO)cc1
CX-4945, 2 µM: O=C(O)c1ccc2c(c1)nc(Nc1cccc(Cl)c1)c1ccncc12
stibogluconate, 10 µM: O=C(O)[C@@H]1[O][Sb](=[O])([O][Sb]2(=[O])[O][C@H]([C@H](O)CO)[C@H](O)[C@H](C(=O)O)[O]2)[O][C@H]([C@H](O)CO)[C@@H]1O (stereo partly shown)
ruxolitinib, 5 µM: N#CC[C@H](C1CCCC1)n1cc(-c2ncnc3[nH]ccc23)cn1

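The test systems are human melanoma cell lines, treated with a pair of drugs for 72 h and then stained and imaged. Values are the share of nuclei positive for cleaved PARP as a percentage of the same share in the DMSO control: 100 is the control level, higher means more apoptosis. Every drug was used at one fixed concentration, the higher of two screened. These are primary screening values without error estimates. Basal and induced levels differ widely between cell lines.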
This is part of the screen, not chosen by result.
An entry leaves out what has no value listed here.
A dash means that no value is listed here.

| # | Second drug | SK-MEL-30 | COLO 800 | SK-MEL-2 | WM115 | IST-MEL1 | SK-MEL-28 | LB2518-MEL |
|---|---|---|---|---|---|---|---|---|
| 1 | AZD7762 | 923 | 162 | 358 | 712 | 3170 | 172 | 171 |
| 2 | KU-0063794 | 235 | 25.1 | 114 | 109 | 54.0 | 50.1 | 255 |
| 3 | NVP-BEZ235 | 225 | 91.1 | 190 | 747 | 276 | 96.6 | - |
| 4 | stibogluconate | 122 | 98.6 | 81.1 | 242 | 43.1 | 29.5 | 124 |
| 5 | JZL184 | 874 | 155 | 225 | 587 | 91.3 | 54.5 | 50.1 |
| 6 | fingolimod | 569 | 412 | 5900 | 2610 | 901 | 3070 | 26300 |
| 7 | PLX4720 | 470 | 167 | 63.5 | 124 | 99.9 | 81.7 | 143 |
| 8 | BMS-536924 | 206 | 198 | 1370 | 5960 | 54.7 | 295 | 76.8 |
| 9 | GW9662 | 525 | 375 | 725 | 424 | 276 | 1040 | 167 |
| 10 | cediranib | 524 | 128 | 85.3 | 597 | 33.2 | 71.5 | 58.4 |
| 11 | GW0742 | 435 | 123 | 193 | 366 | 111 | 321 | 68.2 |
| 12 | CX-4945 | 140 | 74.0 | 353 | 161 | 414 | 198 | 37.6 |
| 13 | GW441756 | 321 | 72.9 | 183 | 861 | 189 | 127 | 100 |
| 14 | MK-1775 | 1200 | 328 | 691 | 452 | 328 | 603 | 126 |
| 15 | ruxolitinib | 382 | 26.3 | 202 | 325 | 141 | 103 | 383 |
| 16 | indole-3-carbinol | 193 | 82.6 | 119 | 156 | 108 | 47.1 | 57.1 |
| 17 | SNS-032 | 679 | 204 | 215 | 201 | 153 | 417 | 108 |
| 18 | GSK0660 | 499 | 294 | 760 | 205 | 357 | 1060 | - |

For reference, 2 entries once more:

{"second drug": "BMS-536924", "SK-MEL-30": 206, "COLO 800": 198, "SK-MEL-2": 1370, "WM115": 5960, "IST-MEL1": 54.7, "SK-MEL-28": 295, "LB2518-MEL": 76.8}
{"second drug": "SNS-032", "SK-MEL-30": 679, "COLO 800": 204, "SK-MEL-2": 215, "WM115": 201, "IST-MEL1": 153, "SK-MEL-28": 417, "LB2518-MEL": 108}